Results deposited as PubChem BioAssay AID1259298 (Sanger Institute, 2017).
Test: 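Kinases whose loss strengthens killing by BYL719, cetuximab or trametinib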 (primary screen). Cells: HT55 human colorectal cancer cell line. Knock-down reagent: siRNA pool against human genes. Conditions: anchor drug BYL719 1 µM, cetuximab 5 µg/ml or trametinib 10 nM, or DMSO vehicle alone. Measured: 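Mean viability over replicates versus non-targeting pool, a robust z-score without drug, and per-drug synergy scores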. Scale: robust z-score, knock-down alone: higher = more cells remaining; low means essential gene. Call rule: 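a gene counts as essential if its knock-down-alone robust z-score falls under -3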. Calls: active = essential (knock-down alone); inactive = no change alone.
Here is a random part of 794 reagents. Of all reagents, 20 (2.5%) got an active call. 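Calls rest only on the knock-down-alone score; drug synergy scores played no part in them.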 Entries without a mark were called inactive. Not all columns of the deposit are shown. Reagent sequences are not shown. Not given: the amount of reagent, the time to read-out.

What is on record for APC?
robust z-score, knock-down alone: -0.561

With IP6K2, how do the results read?
robust z-score, knock-down alone: 0.58

What is on record for VRK3?
robust z-score, knock-down alone: 0.58

What did the screen give for PRPS1?
robust z-score, knock-down alone: -0.554

For TLK1, how do the results read?
robust z-score, knock-down alone: -1.84

For DAPK3, what was measured?
robust z-score, knock-down alone: -0.478

For PRKCSH, what does the deposit list?
robust z-score, knock-down alone: 0.58

How did the screen score PRPS2?
robust z-score, knock-down alone: 0.58

For CDK20, what was measured?
robust z-score, knock-down alone: -0.546

For IGF2R, how do the results read?
robust z-score, knock-down alone: 0.58

For IP6K3, what was measured?
robust z-score, knock-down alone: -1.56

Which result is listed for TAF1?
robust z-score, knock-down alone: -0.278

With TAOK3, how do the results read?
robust z-score, knock-down alone: 0.58

What did the screen give for HIPK2?
robust z-score, knock-down alone: 0.58

For THNSL1, what was measured?
robust z-score, knock-down alone: -0.167

With DCK, how do the results read?
robust z-score, knock-down alone: -1.46

Which result is listed for EIF2AK4?
robust z-score, knock-down alone: -0.596

For STK4, how do the results read?
robust z-score, knock-down alone: 0.58

For BRSK2, how do the results read?
robust z-score, knock-down alone: 0.58

For MAP3K9, what does the deposit list?
robust z-score, knock-down alone: -1.02

What did the screen give for JAK2?
robust z-score, knock-down alone: 0.58

For NEK7, what does the deposit list?
robust z-score, knock-down alone: 0.58

For PKN2, how do the results read?
robust z-score, knock-down alone: 0.224

Which result is listed for PRKD3?
robust z-score, knock-down alone: 0.119

Which result is listed for GUCY2C?
robust z-score, knock-down alone: 0.134

For SPHK2, what does the deposit list?
robust z-score, knock-down alone: -0.636

What did the screen give for AURKA?
robust z-score, knock-down alone: -4.9 (active)

For MAST4, what does the deposit list?
robust z-score, knock-down alone: 0.58

For WNK1, what was measured?
robust z-score, knock-down alone: 0.58

For CDKN2D, how do the results read?
robust z-score, knock-down alone: -1.22

For RPS6KA2, how do the results read?
robust z-score, knock-down alone: -2.42

For CDK3, how do the results read?
robust z-score, knock-down alone: 0.58

What is on record for NUAK1?
robust z-score, knock-down alone: -0.411

What is on record for CKMT2?
robust z-score, knock-down alone: 0.58

With PRKCD, how do the results read?
robust z-score, knock-down alone: 0.248

What did the screen give for PKIA?
robust z-score, knock-down alone: -0.364

Targets above whose gene name starts with D or d (2):
DAPK3 → robust z-score, knock-down alone: -0.478
DCK → robust z-score, knock-down alone: -1.46
